The values below come from doi:10.1101/2020.05.30.124933.

This assay has as its target GST-WW: GST fusion construct encompassing the two WW domains of Hecw (636-834aa) (Drosophila melanogaster). Kind of assay: affinity purification with mass spectrometry.

No constants are given. Whether binding was seen depends on the method and setting. Binding seen in cells or lysates may run through a third protein. These calls come from enrichment with a bait or labelling near it, and not all partners need be listed.

B1: Hrp48, endogenous in S2 cells (protein, UniProt P48809 1-421)
chain: MEEDERGKLFVGGLSWETTQENLSRYFCRFGDIIDCVVMKNNESGRSRGFGFVTFADPTNVNHVLQNGPHTLDGRTIDPKPCNPRTLQKPKKGGGYKVFLGGLPSNVTETDLRTFFNRYGKVTEVVIMYDQEKKKSRGFGFLSFEEESSVEHVTNERYINLNGKQVEIKKAEPRDGSGGQNSNNSTVGGAYGKLGNECSHWGPHHAPINMMQGQNGQMGGPPLNMPIGAPNMMPGYQGWGTSPQQQQYGYGNSGPGSYQGWGAPPGPQGPPPQWSNYAGPQQTQGYGGYDMYNSTSTGAPSGPSGGGSWNSWNMPPNSAGPTGAPGAGAGTATDMYSRAQAWATGGPSTTGPVGGMPRTGPGNSASKSGSEYDYGGYGSGYDYDYSNYVKQEGASNYGAGPRSAYGNDSSTQPPYATSQAV
For the molecule B1, the binding entry is “binds”.
